For one test, the target named is Pex11pβ-Myc^A21P (human) (UniProt O96011). Briefly: cross-linking; COS-7 cells fixed with 4% para-formaldehyde 24 h after transfection, postfixation extraction with 0.2% Triton X-100 (or digitonin); extracts, pellets and unfixed lysates on SDS-PAGE, anti-Myc immunoblot. (In general: Immunoblotting shows a protein as a band on a membrane.)
A further test concerns the target HsPex11pβ-Myc (human) (UniProt O96011). Briefly: sucrose density gradient centrifugation; cells lysed with 1% digitonin without cross-linking; 10-47% sucrose step gradient with 0.1% digitonin, 3 h at 125,000 x g, 4°C, 12 fractions, anti-Myc immunoblot.
The target of another test is Pex11pβΔN40-Myc (human) (UniProt O96011). Nature of the test: cross-linking; COS-7 cells fixed with 4% para-formaldehyde 24 h after transfection, postfixation extraction with 0.2% Triton X-100 (or digitonin); extracts, pellets and unfixed lysates on SDS-PAGE, anti-Myc immunoblot.

These are yes or no findings as the source states them, for the method shown. For part of these data: Binding seen in cells or lysates may run through a third protein. Some entries that bind do so weakly or less than the wild type. Where a sequence is shown, tags or fusion partners need not be part of it.

B1: Pex11pβ-Myc^A21P (protein, UniProt O96011 1-259)
chain: MDAWVRFSAQSQARERLCRAPQYACSLLGHALQRHGASPELQKQIRQLESHLSLGRKLLRLGNSADALESAKRAVHLSDVVLRFCITVSHLNRALYFACDNVLWAGKSGLAPRVDQEKWAQRSFRYYLFSLIMNLSRDAYEIRLLMEQESSACSRRLKGSGGGVPGGSETGGLGGPGTPGGGLPQLALKLRLQVLLLARVLRGHPPLLLDVVRNACDLFIPLDKLGLWRCGPGIVGLCGLVSSILSILTLIYPWLRLKP
As to B1, in the test with Pex11pβ-Myc^A21P (human), the binding result is “binds weakly”.

B2: HsPex11pβ-Myc (natural protein, human, UniProt O96011 1-259, looked up)
chain: MDAWVRFSAQSQARERLCRAAQYACSLLGHALQRHGASPELQKQIRQLESHLSLGRKLLRLGNSADALESAKRAVHLSDVVLRFCITVSHLNRALYFACDNVLWAGKSGLAPRVDQEKWAQRSFRYYLFSLIMNLSRDAYEIRLLMEQESSACSRRLKGSGGGVPGGSETGGLGGPGTPGGGLPQLALKLRLQVLLLARVLRGHPPLLLDVVRNACDLFIPLDKLGLWRCGPGIVGLCGLVSSILSILTLIYPWLRLKP
notes: human Pex11pβ (HsPex11pβ), peroxisomal membrane protein 11B; also called Pex11pβ-Myc (WT); wild type Pex11pβ-Myc; source: COS-7, transfected; cross-linked in cells, then in detergent extract or lysate; not shown: Myc, C-terminal, kept
As for B2, in the test with HsPex11pβ-Myc (human), the binding entry is given as “binds”.

B3: Pex11pβΔN40-Myc (domain or fragment, UniProt O96011 41-259)
chain: LQKQIRQLESHLSLGRKLLRLGNSADALESAKRAVHLSDVVLRFCITVSHLNRALYFACDNVLWAGKSGLAPRVDQEKWAQRSFRYYLFSLIMNLSRDAYEIRLLMEQESSACSRRLKGSGGGVPGGSETGGLGGPGTPGGGLPQLALKLRLQVLLLARVLRGHPPLLLDVVRNACDLFIPLDKLGLWRCGPGIVGLCGLVSSILSILTLIYPWLRLKP
Regarding B3, the binding result in the test with Pex11pβΔN40-Myc (human) is “no binding”.

These data come from article PMC3538539, “Self-Interaction of Human Pex11pβ during Peroxisomal Growth and Division” (PLoS ONE, 2013).
